Drawing on doi:10.1101/2020.01.21.914036, this text covers binding for 7 substances.

Protein sequences, listed by entry. Tags and fused reporters are not part of them. Lines headed by an entry give the natural chain unless they say otherwise; changes in a name come on top.
UniProt Q96RT8, whole entry: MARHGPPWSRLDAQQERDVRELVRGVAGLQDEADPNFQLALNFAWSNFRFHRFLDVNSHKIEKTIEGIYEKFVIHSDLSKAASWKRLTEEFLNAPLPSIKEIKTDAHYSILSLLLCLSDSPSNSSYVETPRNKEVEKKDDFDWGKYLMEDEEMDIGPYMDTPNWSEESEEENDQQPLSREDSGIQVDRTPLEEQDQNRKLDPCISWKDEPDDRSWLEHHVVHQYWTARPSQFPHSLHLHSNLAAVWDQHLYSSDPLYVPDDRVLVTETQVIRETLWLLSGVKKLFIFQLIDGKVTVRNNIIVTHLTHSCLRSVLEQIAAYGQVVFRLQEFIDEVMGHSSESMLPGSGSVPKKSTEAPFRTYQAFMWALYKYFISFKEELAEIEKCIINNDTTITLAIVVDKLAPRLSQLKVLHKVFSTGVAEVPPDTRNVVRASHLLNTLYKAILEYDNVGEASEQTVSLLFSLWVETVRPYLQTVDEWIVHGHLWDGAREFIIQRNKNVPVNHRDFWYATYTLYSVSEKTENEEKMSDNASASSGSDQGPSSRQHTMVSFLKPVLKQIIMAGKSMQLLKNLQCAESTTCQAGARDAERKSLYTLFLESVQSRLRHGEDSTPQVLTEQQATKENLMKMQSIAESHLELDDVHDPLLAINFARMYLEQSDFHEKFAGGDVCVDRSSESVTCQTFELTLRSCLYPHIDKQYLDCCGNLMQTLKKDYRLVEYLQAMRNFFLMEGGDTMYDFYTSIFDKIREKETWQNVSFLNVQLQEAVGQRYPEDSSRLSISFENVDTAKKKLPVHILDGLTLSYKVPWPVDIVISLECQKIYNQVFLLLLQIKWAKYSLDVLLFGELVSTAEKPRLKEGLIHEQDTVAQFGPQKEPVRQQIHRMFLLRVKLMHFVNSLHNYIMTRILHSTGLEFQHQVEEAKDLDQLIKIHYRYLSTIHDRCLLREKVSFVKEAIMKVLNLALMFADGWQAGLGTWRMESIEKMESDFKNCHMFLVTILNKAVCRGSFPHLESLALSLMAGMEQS
UniProt Q9UGJ1, whole entry: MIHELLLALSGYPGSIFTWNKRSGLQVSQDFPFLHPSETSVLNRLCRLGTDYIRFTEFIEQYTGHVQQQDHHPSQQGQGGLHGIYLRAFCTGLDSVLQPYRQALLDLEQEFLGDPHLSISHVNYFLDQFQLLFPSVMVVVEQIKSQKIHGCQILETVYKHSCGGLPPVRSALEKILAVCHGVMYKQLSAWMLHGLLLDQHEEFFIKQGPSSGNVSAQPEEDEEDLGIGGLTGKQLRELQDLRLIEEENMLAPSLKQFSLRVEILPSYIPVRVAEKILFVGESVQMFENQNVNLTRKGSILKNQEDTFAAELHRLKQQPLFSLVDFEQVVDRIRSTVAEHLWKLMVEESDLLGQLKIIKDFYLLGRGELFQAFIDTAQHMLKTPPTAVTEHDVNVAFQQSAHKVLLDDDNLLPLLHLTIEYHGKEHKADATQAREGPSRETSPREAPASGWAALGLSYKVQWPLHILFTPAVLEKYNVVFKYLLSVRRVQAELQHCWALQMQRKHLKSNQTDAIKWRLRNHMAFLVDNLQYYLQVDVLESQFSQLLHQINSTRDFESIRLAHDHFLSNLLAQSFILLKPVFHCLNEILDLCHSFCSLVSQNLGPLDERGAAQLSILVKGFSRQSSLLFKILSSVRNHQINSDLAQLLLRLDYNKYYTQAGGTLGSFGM
UniProt Q96RT7, whole entry: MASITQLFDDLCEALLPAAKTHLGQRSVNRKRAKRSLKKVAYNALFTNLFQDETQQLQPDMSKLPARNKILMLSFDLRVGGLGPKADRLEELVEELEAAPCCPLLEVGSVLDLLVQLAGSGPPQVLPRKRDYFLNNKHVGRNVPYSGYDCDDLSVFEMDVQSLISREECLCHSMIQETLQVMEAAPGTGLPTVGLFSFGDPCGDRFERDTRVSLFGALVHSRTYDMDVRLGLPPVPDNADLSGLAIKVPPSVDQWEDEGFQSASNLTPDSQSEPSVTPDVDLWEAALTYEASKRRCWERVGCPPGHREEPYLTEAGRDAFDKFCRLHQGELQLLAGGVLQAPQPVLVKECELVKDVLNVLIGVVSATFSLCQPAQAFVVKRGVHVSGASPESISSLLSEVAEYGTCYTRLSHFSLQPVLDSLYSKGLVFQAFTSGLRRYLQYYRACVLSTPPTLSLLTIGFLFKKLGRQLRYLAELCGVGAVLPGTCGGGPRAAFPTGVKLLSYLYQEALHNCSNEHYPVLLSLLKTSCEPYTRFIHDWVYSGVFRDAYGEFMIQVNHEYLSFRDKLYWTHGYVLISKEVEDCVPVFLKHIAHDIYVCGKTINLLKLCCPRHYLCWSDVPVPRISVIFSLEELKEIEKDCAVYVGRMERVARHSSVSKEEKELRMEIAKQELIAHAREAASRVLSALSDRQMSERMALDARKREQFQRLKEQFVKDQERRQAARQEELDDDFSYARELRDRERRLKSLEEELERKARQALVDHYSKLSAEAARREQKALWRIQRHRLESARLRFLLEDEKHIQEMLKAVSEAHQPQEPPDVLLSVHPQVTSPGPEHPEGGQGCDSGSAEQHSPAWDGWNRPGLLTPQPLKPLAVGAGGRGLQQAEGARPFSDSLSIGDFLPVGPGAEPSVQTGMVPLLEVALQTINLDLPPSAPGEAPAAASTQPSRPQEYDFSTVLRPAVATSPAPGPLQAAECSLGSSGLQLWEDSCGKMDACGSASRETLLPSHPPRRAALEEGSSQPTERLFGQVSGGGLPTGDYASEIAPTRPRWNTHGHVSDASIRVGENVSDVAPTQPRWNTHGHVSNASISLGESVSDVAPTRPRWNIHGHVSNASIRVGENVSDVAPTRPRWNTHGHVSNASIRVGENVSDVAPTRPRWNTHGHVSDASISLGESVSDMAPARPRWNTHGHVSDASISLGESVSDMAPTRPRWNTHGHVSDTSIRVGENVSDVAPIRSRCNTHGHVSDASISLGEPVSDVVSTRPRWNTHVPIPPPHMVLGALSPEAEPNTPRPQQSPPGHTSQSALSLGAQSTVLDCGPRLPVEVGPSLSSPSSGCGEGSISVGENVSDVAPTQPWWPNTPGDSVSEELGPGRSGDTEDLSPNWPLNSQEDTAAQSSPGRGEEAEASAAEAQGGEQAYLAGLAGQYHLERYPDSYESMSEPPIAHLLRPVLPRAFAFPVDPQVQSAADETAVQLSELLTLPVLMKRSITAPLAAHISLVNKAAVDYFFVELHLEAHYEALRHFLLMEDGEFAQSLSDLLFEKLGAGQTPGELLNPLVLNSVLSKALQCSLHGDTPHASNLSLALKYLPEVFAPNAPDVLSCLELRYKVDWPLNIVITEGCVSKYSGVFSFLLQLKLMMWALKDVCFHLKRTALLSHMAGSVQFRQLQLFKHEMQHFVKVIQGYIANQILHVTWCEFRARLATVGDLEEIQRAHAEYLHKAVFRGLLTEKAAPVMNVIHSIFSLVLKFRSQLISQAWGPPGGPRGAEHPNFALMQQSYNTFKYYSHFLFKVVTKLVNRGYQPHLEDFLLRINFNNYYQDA
UniProt Q9BSJ2, whole entry: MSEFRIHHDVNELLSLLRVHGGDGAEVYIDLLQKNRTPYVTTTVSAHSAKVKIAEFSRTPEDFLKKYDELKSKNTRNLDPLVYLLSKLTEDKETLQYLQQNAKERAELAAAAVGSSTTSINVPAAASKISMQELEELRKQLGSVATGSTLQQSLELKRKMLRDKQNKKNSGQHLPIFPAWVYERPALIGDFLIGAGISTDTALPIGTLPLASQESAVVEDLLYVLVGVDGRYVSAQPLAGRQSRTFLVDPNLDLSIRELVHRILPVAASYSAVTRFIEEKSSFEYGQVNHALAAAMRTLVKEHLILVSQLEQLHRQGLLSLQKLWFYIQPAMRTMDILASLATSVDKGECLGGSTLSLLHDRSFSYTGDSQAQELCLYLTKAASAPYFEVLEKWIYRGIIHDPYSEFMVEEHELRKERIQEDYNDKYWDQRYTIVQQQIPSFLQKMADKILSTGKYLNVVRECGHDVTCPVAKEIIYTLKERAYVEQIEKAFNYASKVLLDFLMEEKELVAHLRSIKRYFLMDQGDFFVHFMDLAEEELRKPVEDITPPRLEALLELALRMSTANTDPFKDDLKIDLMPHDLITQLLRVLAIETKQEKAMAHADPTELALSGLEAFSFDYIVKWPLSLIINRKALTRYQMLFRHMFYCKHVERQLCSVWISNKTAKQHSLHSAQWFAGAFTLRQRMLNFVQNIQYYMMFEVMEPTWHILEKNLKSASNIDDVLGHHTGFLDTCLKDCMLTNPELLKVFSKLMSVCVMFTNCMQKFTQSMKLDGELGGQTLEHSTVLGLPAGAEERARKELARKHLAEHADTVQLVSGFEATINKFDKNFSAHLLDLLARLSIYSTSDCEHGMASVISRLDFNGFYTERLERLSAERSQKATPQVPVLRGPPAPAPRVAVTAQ
UniProt Q96CW5, whole entry: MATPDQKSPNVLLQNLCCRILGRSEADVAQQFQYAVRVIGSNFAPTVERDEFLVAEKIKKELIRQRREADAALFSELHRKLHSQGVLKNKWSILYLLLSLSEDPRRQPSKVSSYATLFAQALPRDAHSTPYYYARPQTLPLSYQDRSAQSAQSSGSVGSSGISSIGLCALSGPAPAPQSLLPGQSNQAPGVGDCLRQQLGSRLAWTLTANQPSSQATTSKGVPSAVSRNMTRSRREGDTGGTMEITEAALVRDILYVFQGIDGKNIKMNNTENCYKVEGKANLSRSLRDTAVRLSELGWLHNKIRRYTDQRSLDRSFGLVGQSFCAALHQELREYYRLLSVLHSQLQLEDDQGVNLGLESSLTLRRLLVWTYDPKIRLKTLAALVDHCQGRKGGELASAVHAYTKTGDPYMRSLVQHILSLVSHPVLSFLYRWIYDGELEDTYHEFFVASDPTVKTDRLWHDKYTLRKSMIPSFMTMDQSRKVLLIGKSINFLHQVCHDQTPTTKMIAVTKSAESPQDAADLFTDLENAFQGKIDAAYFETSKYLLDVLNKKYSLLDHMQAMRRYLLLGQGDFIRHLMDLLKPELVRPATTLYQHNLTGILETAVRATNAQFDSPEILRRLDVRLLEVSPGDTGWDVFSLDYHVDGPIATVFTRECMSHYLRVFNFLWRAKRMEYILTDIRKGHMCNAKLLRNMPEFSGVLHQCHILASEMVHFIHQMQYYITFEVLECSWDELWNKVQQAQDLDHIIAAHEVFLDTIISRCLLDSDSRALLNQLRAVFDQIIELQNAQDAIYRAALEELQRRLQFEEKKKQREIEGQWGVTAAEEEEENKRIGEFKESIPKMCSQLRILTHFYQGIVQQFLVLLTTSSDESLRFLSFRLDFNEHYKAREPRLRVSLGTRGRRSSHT

Read-outs that look alike come from different tables or passages of the source. Results are given in words; binding and its absence hold for the method and conditions named. For some assays here: In cells and extracts the contact can be indirect. Some entries that bind do so weakly or less than the wild type.

Experiment [1] has as its target GCP5 (gamma-tubulin complex protein 5) (human (endogenous in HeLa)) (UniProt Q96RT8). Kind of experiment: co-IP.
Experiment [2] deals with GCP4 (gamma-tubulin complex protein 4) (human (endogenous in HeLa)) (UniProt Q9UGJ1). The experiment in a line: co-IP.
Experiment [3] addresses GCP5 (gamma-tubulin complex protein 5) (human (endogenous in HeLa)) (UniProt Q96RT8). Kind of experiment: co-IP. The source holds these as a separate data set.
Experiment [4] addresses GCP4 (gamma-tubulin complex protein 4) (human (endogenous in HeLa)) (UniProt Q9UGJ1). The experiment in a line: co-IP. This is another data set of the same source.
For experiment [5], the target named is GCP5 (gamma-tubulin complex protein 5) (human (endogenous in HeLa)) (UniProt Q96RT8). Kind of experiment: co-IP. This is another data set of the same source.
Experiment [6] addresses GCP5 (gamma-tubulin complex protein 5), HEK293 (human (endogenous in HEK293)) (UniProt Q96RT8). Kind of experiment: co-IP.
Experiment [7] has the same target. The experiment in a line: co-IP. This is another data set of the same source.
Experiment [8] has as its target GCP6 280-1819 (UniProt Q96RT7). Kind of experiment: co-IP.
Experiment [9] has as its target GCP6 (gamma-tubulin complex protein 6) (human (endogenous in HeLa)) (UniProt Q96RT7). The experiment in a line: co-IP.
Another experiment has as its target GCP6 352-1819 (UniProt Q96RT7). The experiment in a line: co-IP.
The target of experiment [10] is GCP6 280-1819 (UniProt Q96RT7). The experiment in a line: co-IP. This is another data set of the same source.
Experiment [11] deals with GCP6 (gamma-tubulin complex protein 6) (human (endogenous in HeLa)) (UniProt Q96RT7). The experiment in a line: co-IP. The source holds these as a separate data set.
The target in experiment [12] is overexpressed GCP6 (wild type) (UniProt Q96RT7). The experiment in a line: co-IP.
Experiment [13] concerns the target GCP6 with a C-terminal GST-hexa-histidine tag (human (endogenous in HEK293)) (UniProt Q96RT7). The experiment in a line: SEC.
Experiment [14] has as its target GCP4 (gamma-tubulin complex protein 4) (human (endogenous in HeLa)) (UniProt Q9UGJ1). Kind of experiment: co-IP. This is another data set of the same source.
Experiment [15] has the same target. The experiment in a line: co-IP. This is another data set of the same source.

In the case of “GCP2 (gamma-tubulin complex protein 2) (from UniProt Q9BSJ2 1-902)”, the binding entry is given as “binds” in experiment [1]; “binds” in [2]; “binds” in experiment [3]; “no binding (condition: 500 mM KCl)” in [4]; “no binding (condition: 500 mM KCl)” in [5].
As to “GCP2 (gamma-tubulin complex protein 2), HEK293 (from UniProt Q9BSJ2 1-902)”, the binding result in experiment [6] is “no binding (condition: 600 mM KCl)”; in [7], “binds”.
As for “GCP3 (gamma-tubulin complex protein 3) (from UniProt Q96CW5 1-907)”, the binding entry in [2] is recorded as “binds”; in experiment [4] it was “no binding (condition: 500 mM KCl)”.
As for “GCP4 (gamma-tubulin complex protein 4) (from UniProt Q9UGJ1 1-667)”, the binding entry with GCP6 280-1819 [8] is reported as “no binding (condition: 500 mM KCl)”; in experiment [9], “binds”; with GCP6 352-1819 it was “no binding”; with GCP6 280-1819 [10], “binds”; in [11] it was “binds”; in experiment [12] it was “binds”.
Take “GCP4 (gamma-tubulin complex protein 4), HEK293 (from UniProt Q9UGJ1 1-667)”: in [13], the binding result was “binds”.
In the case of “GCP6 (gamma-tubulin complex protein 6) (from UniProt Q96RT7 1-1819)”, the binding entry in experiment [14], in experiment [2] and in experiment [15] was “binds” each time.
With “GCP6Δ675-1400 (from UniProt Q96RT7 1-1819)”, the binding entry in experiment [2] is recorded as “binds”.
